In this assay the test system is AMO-1. The experiment in a line: Antiproliferation assay 7, AMO-1. The settings on record: read-out: Antiproli AMO-1 IC50 median; AMO-1 cells, 72 hours, CellTiter-Glo. Type of assay: cell-based. (In ATP-based viability assays light output follows the ATP content of the culture.)

The term IC50 denotes the concentration at which inhibition is half-maximal.

The structures appear in SMILES notation. Certain results were filed several times, with different values. They are shown here; other results are not. An entry can have further records. The values listed for one entry seem to repeat one measurement (runs, samples, wells or individuals).

With `CCc1c2c(nn1C)CN(CC(F)F)CCCCn1c(C(=O)O)c(CCCOc3cccc4cc(F)ccc34)c3ccc(Cl)c-2c31`, the concentration for half-maximal inhibition (IC50) was 1.29 µM and 12 µM.

Values taken from patent publication US11447504B2, “Macrocyclic chlorine substituted indole derivatives” (Bayer Aktiengesellschaft, priority 2017, dated 2022).
